# Reference: PubChem BioAssay AID485298 (National Center for Advancing Translational Sciences (NCATS), 2010)
# The whole screen tested about 320,000 compounds, of which about 740 (0.23%) were called active. The inconclusive results got no clear call from the source; some entries with a clear call stand among them for comparison. The call rests on the fitted dose curve; in most records, active means well fitted activation curve with a large enough effect; inconclusive means small, poorly fitted or top-dose-only effect; inactive means no such curve, though single readings can be large or run the other way. A potency beside an inconclusive call is a rough fit, not a confirmed value. Where a structure was tested more than once in an assay, its records may differ in their call.
# Assay: qHTS Assay for Small Molecule Inhibitors of Mitochondrial Division or Activators of Mitochondrial Fusion; further: nearly all actives have a fitted effect of over 45% in size
# Settings: S. cerevisiae fusion-defective mutant growth rescue, CellTiterGlo 48 h; series mostly up to 46.1 µM
# In short: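 S. cerevisiae fusion-defective temperature-sensitive mutants (e.g. fzo1-1, mgm1-5) grown 48 h at 37C in YPEG (ethanol/glycerol non-fermentable) medium with 23 nl compound per well; growth rescue read as CellTiterGlo luminescence.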
# Potency means the concentration at half of the fitted maximal effect.
row,Structure (SMILES),Potency
1,COc1ccc(-c2coc3c(C)c4oc(=O)c(CCC(=O)O)c(C)c4cc23)cc1,"inconclusive: 6.31 µM [activator, partial curve]"
2,CCC(C)Sc1ccc([C@H]2N[C@@](Cc3ccccc3)(C(=O)OC)[C@H]3C(=O)N(C)C(=O)[C@@H]23)cc1 (stereo partly drawn),"inconclusive: 17.8 µM [activator, single point]"
3,Cc1cc(C)cc(NC(=O)CCc2ccc(C)o2)c1,"inconclusive: 3.98 µM [activator, single point]"
4,CCCOc1ccc(C(=O)C(CN2CCCC2)c2ccccc2)cc1 (stereo not drawn),"inconclusive: 15.8 µM [activator, single point]"
5,CCN1C(=O)[C@H]2[C@@H](c3ccc(-c4ccccc4)cc3)N3CCC[C@@]3(C(=O)OC)[C@H]2C1=O,"inconclusive: 28.2 µM [activator, single point]"
6,COc1ccc(-n2nc(C(N)=O)c(O)cc2=O)cc1,"inconclusive: 35.5 µM [activator, single point]"
7,O=C(Nc1nc(-c2ccco2)c(-c2ccco2)s1)c1c(F)cccc1Cl,active: 12.6 µM
8,O=C(N/N=C/c1cccnc1)c1ccccc1Cl,"inconclusive: 22.4 µM [activator, single point]"
9,CCCn1c(SCC(=O)Nc2ccc(NC(=O)CC)cc2)nc2c1c(=O)n(C)c(=O)n2C,"inconclusive: 3.98 µM [activator, full curve, poor fit]"
10,CCn1c2ccccc2c2cc(NC(=O)CNCc3ccccc3OC)ccc21,inactive
11,CC(=O)Nc1cccc(-c2csc(Nc3ccc(C)cn3)n2)c1,"inconclusive: 22.4 µM [activator, single point]"
12,O=C(Nc1ccc2nc(-c3ccco3)c(-c3ccco3)nc2c1)NC1CC1,inactive
13,COc1ccc(C(C)=O)cc1COC(=O)c1cc(C)nc2ccccc12,inactive
14,CCOc1ncccc1C(=O)Nc1nnc(C2CC2)s1,inactive
15,O=C1CC(c2ccccc2)=Nc2ccc(Br)cc2N1,"inconclusive: 35.5 µM [activator, single point]"
16,O=C(NNC(=S)Nc1ccc(Br)cc1)c1ccc(N2CCOCC2)c([N+](=O)[O-])c1,"inconclusive: 22.4 µM [activator, single point]"
17,CC(=O)Nc1ccc(C(=O)COC(=O)C2CCCCC2)c(F)c1,"inconclusive: 10 µM [activator, partial curve]"
18,O=Cc1cc(N=Nc2ccccc2Cl)ccc1O,"inconclusive: 15.8 µM [activator, partial curve]"
19,Cn1c(=O)oc2cc(S(=O)(=O)Nc3ccccc3)ccc21,"inconclusive: 22.4 µM [activator, partial curve]"
20,CCc1ccccc1Nc1nc2ccccc2n1C,inactive
21,O=C(/C=C/c1ccc(Cl)cc1Cl)N1CCN(c2ccccc2[N+](=O)[O-])CC1,"inconclusive: 20 µM [activator, partial curve, poor fit]"
22,Clc1cccc(NCc2nnc(SCc3ccc(Cl)cc3Cl)o2)c1,"inconclusive: 2.82 µM [activator, single point]"
23,COC(=O)CC1COc2ccccc2N1S(=O)(=O)c1ccc(Br)cc1 (stereo not drawn),"inconclusive: 35.5 µM [activator, single point]"

row,Structure (SMILES),Potency
1,O=C(Oc1c(-c2ccccc2Cl)oc2ccccc2c1=O)c1ccc(Cl)cc1,"inconclusive: 17.8 µM [activator, partial curve]"
2,Cc1oncc1C(=O)Nc1ccc(C(F)(F)F)cc1,active: 20.6 µM
3,Cn1c(=O)[nH]c(=O)c2c1nc(OC(=O)c1ccccc1)n2CC(O)COc1ccc(F)cc1 (stereo not drawn),inactive
4,N#Cc1nc(Cc2ccccc2)oc1NCCc1ccccc1,"inconclusive: 11.2 µM [activator, partial curve]"
5,CC(C)(C)C(=O)OCCNc1nc(-c2ccccc2)nc2ccccc12,"inconclusive: 15.8 µM [activator, single point]"
6,O=S(=O)(NC1CCCCC1NCc1ccco1)c1ccc(Cl)cc1 (stereo not drawn),inactive
7,N#Cc1c(NC(=O)C2CC2)sc2c1CCCCC2,active: 15.8 µM
8,CCOC(=O)C1=C(CNCCc2ccc(Cl)cc2)NC(=O)NC1c1ccc2c(c1)OCO2 (stereo not drawn),inactive
9,Cc1ccc(C(=O)Nc2nc(-c3ccccc3)c(-c3ccccc3)o2)cc1,"inconclusive: 31.6 µM [activator, single point]"
10,COC(=O)Cn1c(=O)c2c(nc3n2CCCN3Cc2ccccc2)n(C)c1=O,active: 6.31 µM
11,CCCCCCCCc1ccc(-c2ccc(C(=O)O)cc2)cc1,"inconclusive: 11.6 µM [activator, single point]"
12,Clc1ccc(-c2nnc(CSc3nnc(-c4cccs4)n3Cc3ccccc3)o2)cc1,"inconclusive: 35.5 µM [activator, single point]"
13,COc1ccc(-c2c(C)nn3c(NC4CCCC4)cc(C)nc23)cc1OC,"inconclusive: 3.55 µM [activator, partial curve, poor fit]"
14,O=S(=O)(Nc1cccc(CCc2ccccn2)c1)c1ccc2ccccc2c1,"inconclusive: 20 µM [activator, single point]"
15,O=C(Nc1ccc(N2CCOCC2)c(S(=O)(=O)Nc2ccccc2Cl)c1)c1ccccc1,"inconclusive: 11.2 µM [activator, partial curve]"
16,Cc1ccc(-c2noc(CSc3nnnn3-c3ccccc3)n2)cc1,"inconclusive: 20 µM [activator, partial curve]"
17,O=C(Cn1nnc(-c2ccccc2)n1)NNC(=O)c1ccco1,"inconclusive: 3.98 µM [activator, single point]"
18,COc1ccc(-n2c(Cc3cccn3C)nnc2SCC(=O)Nc2cc(Cl)ccc2OC)cc1,"inconclusive: 25.1 µM [activator, single point]"
19,Cc1cc([N+](=O)[O-])nn1CC(=O)Nc1ccccn1,"inconclusive: 35.5 µM [activator, partial curve]"
20,O=C(O)c1ccc(Nc2ccc(Cl)c(Cl)c2)c([N+](=O)[O-])c1,active: 14.1 µM
21,O=C(c1ccccc1F)N1CCN(C2CCC(c3ccccc3)CC2)CC1 (stereo not drawn),"inconclusive: 35.5 µM [activator, single point]"
22,O=C(O)c1ccccc1-c1ccccc1C(=O)Nc1cccc(O)c1,"inconclusive: 5.01 µM [activator, single point]"
23,O=C(O)c1cc(O)c2c(c1)[C@H]([C@H]1c3cc(C(=O)O)cc(O)c3C(=O)c3c(O[C@@H]4O[C@H](CO)[C@@H](O)[C@H](O)[C@H]4O)cccc31)c1cccc(OC3O[C@H](CO)[C@@H](O)[C@H](O)[C@H]3O)c1C2=O (stereo partly drawn),inactive

row,Structure (SMILES),Potency
1,N#Cc1ccc(C2=CC(=O)C[C@H](c3ccc(F)cc3)C2)cc1,"inconclusive: 31.6 µM [activator, single point]"
2,CN(C)c1ccc(C2CC(c3cccc(NS(C)(=O)=O)c3)=NN2C(=O)c2ccccc2)cc1 (stereo not drawn),inactive
3,O=C(Oc1ccc(C(=S)N2CCOCC2)cc1)c1ccccc1,inactive
4,Cc1ccc(-n2nc(-c3ccccc3)cc2Nc2ccccc2N)cc1,"inconclusive: 35.5 µM [activator, single point]"
5,COc1ccc(/C=N/Nc2ncc(Br)cn2)c(OC)c1,inactive
6,CN1CCc2cc(O)c(O)cc2C(c2ccccc2)C1 (stereo not drawn),"inconclusive: 5.17 µM [activator, partial curve]"
7,CCOC(=O)c1ccc(NC(=O)CC2COc3ccccc3O2)cc1 (stereo not drawn),"inconclusive: 35.5 µM [activator, single point]"
8,COc1cc2nc(NCCCN3CCN(C)CC3)n3nc(-c4ccccc4)nc3c2cc1OC,"inconclusive: 3.55 µM [activator, partial curve]"
9,O=C(CSc1nc(C2CCCCC2)nc2ccccc12)NCc1ccco1,"inconclusive: 25.1 µM [activator, partial curve]"
10,CC(C)C(=O)NC(=S)Nc1ccc(S(=O)(=O)Nc2ccccc2)cc1,inactive
11,OCCC1CN(Cc2nc(-c3ccccc3)cs2)CCN1Cc1ccc(F)cc1 (stereo not drawn),active: 11.2 µM
12,CC(=O)N(c1ccccc1C)S(=O)(=O)c1ccc(Cl)cc1,"inconclusive: 28.2 µM [activator, single point]"
13,C#CCOc1ccc(/C=C2\SC(=S)N(Cc3cccnc3)C2=O)cc1,"inconclusive: 11.2 µM [activator, partial curve]"
14,O=C(Nc1cccc2ccccc12)/C(Cl)=C/c1ccccc1,"inconclusive: 14.1 µM [activator, single point]"
15,Cc1cc2c(cc1C)C(c1ccccc1Br)CC(=O)N2 (stereo not drawn),"inconclusive: 5.01 µM [activator, full curve, poor fit]"
16,O=C1CC(O)(c2ccccc2)C(c2ccccc2)=C1c1ccccc1 (stereo not drawn),"inconclusive: 35.5 µM [activator, single point]"
17,Cc1sc(NC(=O)c2ccco2)c(C(c2cccnc2)N2CCN(CCO)CC2)c1C (stereo not drawn),inactive
18,Cc1cn(C(=O)c2ccccc2)c(=S)n1-c1ccc(Cl)cc1,"inconclusive: 14.1 µM [activator, partial curve]"
19,COc1ccccc1N1C(=O)CC1(C#N)c1ccc(OCc2ccccc2)cc1 (stereo not drawn),"inconclusive: 31.6 µM [activator, single point]"
20,NC(=O)CC(NC(=O)Cc1ccc(Br)cc1)c1ccc(NCCc2ccccc2F)c([N+](=O)[O-])c1 (stereo not drawn),inactive
21,Cc1ccccc1N=Cc1c(O)n(-c2nccs2)c(=O)c2ccccc12,"inconclusive: 17.8 µM [activator, partial curve]"
22,COc1cccc(-c2nn(C)c3sc(C(=O)NCc4ccco4)cc23)c1,"inconclusive: 35.5 µM [activator, single point]"

# Reprinted from the entries so far (6 entries):
row,Structure (SMILES),Potency
14,O=C(Nc1cccc2ccccc12)/C(Cl)=C/c1ccccc1,"inconclusive: 14.1 µM [activator, single point]"
15,Cc1cc2c(cc1C)C(c1ccccc1Br)CC(=O)N2 (stereo not drawn),"inconclusive: 5.01 µM [activator, full curve, poor fit]"
16,O=C1CC(O)(c2ccccc2)C(c2ccccc2)=C1c1ccccc1 (stereo not drawn),"inconclusive: 35.5 µM [activator, single point]"
17,Cc1sc(NC(=O)c2ccco2)c(C(c2cccnc2)N2CCN(CCO)CC2)c1C (stereo not drawn),inactive
18,Cc1cn(C(=O)c2ccccc2)c(=S)n1-c1ccc(Cl)cc1,"inconclusive: 14.1 µM [activator, partial curve]"
19,COc1ccccc1N1C(=O)CC1(C#N)c1ccc(OCc2ccccc2)cc1 (stereo not drawn),"inconclusive: 31.6 µM [activator, single point]"
